Source: PubChem BioAssay AID540256 (National Center for Advancing Translational Sciences (NCATS), 2011)
The campaign covered roughly 300,000 compounds. About 3,700 (1.2%) were called active. The inconclusive results got no clear call from the source; some entries with a clear call stand among them for comparison. Calls follow the shape of the full dose curve; tested in HEK293 cells. A potency beside an inconclusive call is a rough fit, not a confirmed value.

Experiment: qHTS for Inhibitors of binding or entry into cells for Lassa Virus; also: nearly all actives have a fitted effect of over 50% in size
Details: Lassa virus pseudotype entry inhibition, cell reporter; series mostly up to 37.9 µM
Potency is read from the fitted curve at half-maximal effect.

Row | Structure (SMILES) | Potency
1 | CC1(C)OC(=O)C(=CNc2ccccc2)C(=O)O1 | inactive
2 | COc1ccc(NC(=O)c2c(C)oc3ccc(O)c(CN4CCCC(C)C4)c23)cc1Cl (stereo not given) | inconclusive: 11.2 µM [inhibitor, single point]
3 | O=C(CN1C(=O)C2CCCCC2C1=O)Nc1nc(-c2ccc(F)cc2)cs1 (stereo not given) | inactive
4 | N/C(=N\OC(=O)c1ccc(Cl)cc1)c1ccc(Cl)cc1 | inconclusive: 3.55 µM [activator, single point]
5 | Cc1cc(F)ccc1NC(=O)CCc1c(C)nn(-c2ccc(N3CCCCC3)nn2)c1C | inconclusive: 22.4 µM [inhibitor, partial curve, poor fit]
6 | Cc1ccc(C)c(CN2C(=O)c3ccccc3Sc3ccc(C(=O)NC4CCCC4)cc32)c1 | inconclusive: 0.631 µM [inhibitor, full curve, poor fit]
7 | CN(C)c1ccc(S(=O)(=O)c2ccc(Cl)cc2)cc1 | inconclusive: 1.26 µM [inhibitor, single point]
8 | COc1ccc(CN2CCNC(=O)C2CC(=O)NCc2cc(C)n(C)n2)c(F)c1 (stereo not given) | inactive
9 | Cc1cc(OC2CCCCC2)nc(-c2ccccc2O)n1 | inconclusive: 29.1 µM [activator, partial curve, poor fit]
10 | COc1ccc(/C=N/N2CCN(C)CC2)cc1OC | inactive
11 | Cc1cccc2nc(CSc3ccccc3N)cn12 | inconclusive: 6.31 µM [activator, single point]
12 | O=C(NC1=NCCS1)c1cc(-c2ccc(F)cc2)nc2ccccc12 | inactive
13 | O=C1C=C(Nc2ccc(Cl)cc2Cl)CC(c2ccco2)C1 (stereo not given) | inconclusive: 3.55 µM [inhibitor, single point]
14 | CCOc1ccc(N/C(C)=C\C(=O)c2ccc3c(c2)OCCO3)cc1 | inactive
15 | CCOC(=O)Nc1cccc(OCC(=O)Nc2ccccc2OC)c1 | inconclusive: 4.61 µM [activator, partial curve, poor fit]
16 | Cc1ccc(C)c(OCCC(=O)Nc2cccc(S(=O)(=O)N3CCCC3)c2)c1 | inconclusive: 35.5 µM [inhibitor, single point]
17 | CSc1ccn(CCC(=O)O)c(=O)n1 | inconclusive: 3.55 µM [activator, single point]
18 | COc1cccc2cc(-c3nc(Cl)c4c5c(sc4n3)CC(C)CC5)c(=O)oc12 (stereo not given) | inconclusive: 6.31 µM [activator, single point]
19 | CCc1nc2ccc(C(=O)NCCCN3CCN(c4ccccc4F)CC3)cc2nc1CC | inconclusive: 22.4 µM [inhibitor, partial curve, poor fit]
20 | C/C(=N/NC(=O)c1cccs1)c1c(C)[nH]n(-c2nc3ccccc3s2)c1=O | inconclusive: 18.3 µM [inhibitor, single point]
21 | COc1cc(NC(=O)C2CC(c3cccc(Br)c3)=NO2)cc(OC)c1OC (stereo not given) | inconclusive: 0.1 µM [inhibitor, full curve, poor fit]
22 | CC1CCN(c2ncccc2C(=O)O)CC1 | inactive

Row | Structure (SMILES) | Potency
23 | Cc1ncc(CO)c2c1Oc1nc(-c3ccccc3F)nc(SCC(=O)N3CCCCC3)c1C2 | inactive
24 | CC(C)c1ccc(NC(=O)C2CCCN(S(=O)(=O)c3cccnc3)C2)cc1 (stereo not given) | inconclusive: 17.8 µM [inhibitor, single point]
25 | O=C(COc1ccc(Cl)cc1Br)N1CCN(S(=O)(=O)c2ccccc2)CC1 | inconclusive: 11.2 µM [inhibitor, partial curve, poor fit]
26 | COc1ccc(Br)cc1CNc1ccc2[nH]c(=O)[nH]c2c1 | inconclusive: 35.5 µM [inhibitor, single point]
27 | Cc1cccc(CS(=O)(=O)CC2Nc3ccc(C(=O)NCc4ccccc4Cl)cc3NC2=O)c1 (stereo not given) | inactive
28 | Cc1ccccc1/C=N/n1c(COc2ccccc2)n[nH]c1=S | inconclusive: 35.5 µM [inhibitor, single point]
29 | CCCCOc1cccc(NC(=O)CSc2nncn2C)c1 | inconclusive: 4.47 µM [inhibitor, partial curve, poor fit]
30 | COc1ccc(NS(=O)(=O)c2cccc(C(=O)N(C)Cc3ccc(SC)cc3)c2)cc1 | inconclusive: 15.8 µM [inhibitor, single point]
31 | COc1ccc(OC)c(/C=C/C(=O)N2CCN(S(=O)(=O)c3ccc(C)cc3C)CC2)c1 | inconclusive: 35.5 µM [inhibitor, single point]
32 | COc1ccc(N(CC(=O)Nc2cccc(SC)c2)S(C)(=O)=O)cc1 | inactive
33 | COc1ccc(Cc2nnc(NC(=O)c3c(-c4ccccc4)noc3C)s2)cc1 | inconclusive: 22.4 µM [inhibitor, single point]
34 | Cc1ccc(NC(=O)Cn2cc(C(F)(F)F)cc(Cl)c2=O)cc1S(=O)(=O)N1CCCCC1 | inconclusive: 7.94 µM [inhibitor, partial curve, poor fit]
35 | O=C(NCCc1c[nH]c2ccccc12)Nc1ccccc1C(F)(F)F | inconclusive: 6.31 µM [inhibitor, single point]
36 | NS(=O)(=O)c1ccc(CNS(=O)(=O)c2ccc3ccccc3c2)cc1 | inconclusive: 6.31 µM [inhibitor, single point]
37 | Cc1cc(=O)oc2cc(NC(=O)c3ccccc3Cl)ccc12 | inconclusive: 3.55 µM [activator, partial curve, poor fit]
38 | c1ccc2c(CCc3ccncc3)cccc2c1 | inconclusive: 8.91 µM [inhibitor, partial curve, poor fit]
39 | O=C(CNC(=O)c1ccccc1F)N/N=C/c1ccc2c(c1)OCO2 | inconclusive: 11.2 µM [activator, single point]
40 | CCOc1cccc(OCCn2cnc3ccccc3c2=O)c1 | inactive
41 | Cn1nc(CC(=O)Nc2cccc3ncccc23)c2ccccc2c1=O | inconclusive: 11.2 µM [inhibitor, single point]
42 | CCn1c(=O)cc(OCC(=O)NCc2ccc(F)cc2Cl)c2ccccc21 | inactive
43 | CCOCCCNC(=O)c1c(NC(=O)c2cc(=O)c3cc(C)c(C)cc3o2)sc2c1CCC2 | inactive
44 | CCOC(=O)c1ccc(N2C(=O)c3[nH]nc(-c4ccc(OC)cc4)c3C2c2ccc(C)cc2)cc1 (stereo not given) | inconclusive: 11.2 µM [inhibitor, partial curve, poor fit]

Some of the entries above in another layout:
Row	Structure (SMILES)	Potency
25	O=C(COc1ccc(Cl)cc1Br)N1CCN(S(=O)(=O)c2ccccc2)CC1	inconclusive: 11.2 µM [inhibitor, partial curve, poor fit]
26	COc1ccc(Br)cc1CNc1ccc2[nH]c(=O)[nH]c2c1	inconclusive: 35.5 µM [inhibitor, single point]

Arranged by SMILES length (rising): three of the compounds above
Row | Structure (SMILES) | Potency
8 | COc1ccc(CN2CCNC(=O)C2CC(=O)NCc2cc(C)n(C)n2)c(F)c1 (stereo not given) | inactive
30 | COc1ccc(NS(=O)(=O)c2cccc(C(=O)N(C)Cc3ccc(SC)cc3)c2)cc1 | inconclusive: 15.8 µM [inhibitor, single point]
31 | COc1ccc(OC)c(/C=C/C(=O)N2CCN(S(=O)(=O)c3ccc(C)cc3C)CC2)c1 | inconclusive: 35.5 µM [inhibitor, single point]

(more compounds)

Row | Structure (SMILES) | Potency
45 | COc1ccc2sc(N(Cc3cccnc3)C(=O)c3ccco3)nc2c1 | inconclusive: 35.5 µM [inhibitor, single point]
46 | O=C1CN(C(=O)c2ccccc2)C(c2ccc(F)cc2)c2cc(Br)ccc2N1 (stereo not given) | inconclusive: 7.08 µM [inhibitor, partial curve]
47 | COc1ccc(C(=O)NCCc2c[nH]c3ccccc23)cc1 | inconclusive: 5.62 µM [activator, single point]
48 | Cc1cc(Cl)c(S(=O)(=O)N2CCCC2)cc1OCC(=O)NC1CCCCC1 | inconclusive: 25.9 µM [inhibitor, single point]
49 | O=C(Nc1ccc(Cl)cc1)Nc1csc([N+](=O)[O-])c1 | inconclusive: 17.8 µM [inhibitor, partial curve, poor fit]
50 | COCCn1c(C)cc(C(=O)CSc2nc3ccccc3s2)c1C | inconclusive: 2.91 µM [inhibitor, full curve, poor fit]
51 | CCCCc1c(C)nn(-c2nnc3c4ccccc4n(C)c3n2)c1C | inactive
52 | CCOC(=O)N1CCN(C(=O)CN(c2cc(Cl)ccc2OC)S(=O)(=O)c2ccccc2)CC1 | inconclusive: 20.6 µM [inhibitor, single point]
53 | Cc1ccc2[nH]c(O)c(N=Nc3ccc(S(N)(=O)=O)cc3)c2c1 | active: 3.97 µM
54 | CCCOc1ccc(/C=C/C(=O)Nc2ccc([N+](=O)[O-])cc2)cc1 | inconclusive: 6.31 µM [inhibitor, partial curve, poor fit]
55 | CN1Cc2c(N3CCOCC3)nc3sc(C(=O)c4ccc(Br)cc4)c(N)c3c2CC1(C)C | inconclusive: 35.5 µM [inhibitor, single point]
56 | CN1/C(=C\C(=O)C[n+]2cccc(Br)c2)C(C)(C)c2ccccc21 | inconclusive: 22.4 µM [inhibitor, single point]
57 | N#Cc1c(C(F)(F)F)cc(-c2cccs2)nc1SCC(=O)Nc1ccc(Cl)cc1 | inactive
58 | CCC(c1nnnn1CCOC)N(Cc1cc2c(C)cc(C)cc2[nH]c1=O)CC1CCCO1 (stereo not given) | inconclusive: 4.11 µM [inhibitor, single point]
59 | COc1ccccc1N=C(C)C1=C(O)CC(c2ccccc2)CC1=O (stereo not given) | inconclusive: 0.794 µM [inhibitor, full curve, poor fit]
60 | COC(=O)c1ccc(N=Nc2ccccc2)cc1 | inconclusive: 14.1 µM [inhibitor, partial curve, poor fit]
61 | Cc1ccc(NS(=O)(=O)c2ccc(NC(=O)c3cccs3)cc2)c(C)c1 | inconclusive: 29.1 µM [inhibitor, single point]
62 | CCN(CC)CCN(Cc1cc2ccc(C)cc2[nH]c1=O)C(=S)Nc1ccccc1C(=O)OC | inconclusive: 11.2 µM [inhibitor, partial curve, poor fit]
63 | Brc1ccc2nc(-c3ccncc3)c(NC3CCCC3)n2c1 | inconclusive: 25.1 µM [inhibitor, partial curve, poor fit]
64 | COc1ccc(-c2cnnc(N/N=C/c3c(C)nn(-c4ccccc4)c3Cl)n2)cc1 | inconclusive: 1.26 µM [inhibitor, full curve]
65 | Cc1cc(NC(=O)CCC(=O)N(Cc2ccccc2)C2(C(=O)NC3CCCCC3)CCCC2)no1 | inconclusive: 11.2 µM [inhibitor, partial curve, poor fit]
